Among all 320,000 compounds or so, about 22,000 (6.9%) were called active. Inconclusive means that the source gave no clear call. Such entries were picked first, then a sample of the others. Calls follow the shape of the dose curve; as a rule, active = well fitted inhibition curve with a large enough effect; inconclusive = small, poorly fitted or top-dose-only effect, or another doubt; inactive = no such curve, though single readings can be large or run the other way. Where the call is inconclusive, the potency comes from a doubtful curve fit.
Assay: Primary qHTS for delayed death inhibitors of the malarial parasite plastid, 96 hour incubation
Details: P. falciparum luciferase reporter growth; series mostly up to 28.7 µM; activity change, negative = inhibition: at the top concentration
In short: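 Parasite growth measured via integrated firefly luciferase reporter in P. falciparum. Infected erythrocytes at 2% hematocrit, 0.05% parasitemia final were treated 96 hours at 37 C under 5% CO2, and luminescence was read.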
% is scaled to controls: 0 for no effect and ±100 for the full control effect; potency is read from the fitted curve at half-maximal effect.

| SMILES | Potency | activity change, negative = inhibition |
| --- | --- | --- |
| CSc1nsc2nc(=O)c(/C=C3\C(C)=Nc4ccc(C)cc43)c(N)n12 | inconclusive: 18.5 µM [inhibitor, single point] |  |
| CCOc1ccc2ccccc2c1CNCCc1ccc(S(N)(=O)=O)cc1 | inconclusive: 5.22 µM [inhibitor, partial curve] |  |
| COc1ccc(CCNC(=O)C2CCN(S(=O)(=O)c3cccs3)CC2)cc1OC | inconclusive: 18.5 µM [inhibitor, single point] |  |
| Cc1c(C)c2cc(Cl)c(OCC(=O)N3C[C@H]4C[C@@H](C3)c3cccc(=O)n3C4)cc2oc1=O |  | inactive: -1.29% |
| O=C(NNC(=O)c1ccccc1Br)c1ccncc1 | active: 10.4 µM |  |
| CN(Cc1ccccc1)c1nc(-c2ccc([N+](=O)[O-])cc2)nc2ccccc12 | inconclusive: 8.28 µM [inhibitor, partial curve, poor fit] |  |
| Cc1ccc(/C=C/C(=O)c2cc(Br)ccc2OC(=O)c2ccco2)cc1 | inconclusive: 18.5 µM [inhibitor, single point] |  |
| COc1ccccc1OP(=O)(Nc1ccc(Br)cc1)Oc1ccccc1OC | inconclusive: 18.5 µM [inhibitor, single point] |  |
| CCC1C(=O)NCCN1C(=O)c1ccc2nc(Cc3cccc(Cl)c3)oc2c1 (stereo not drawn) | inconclusive: 10.4 µM [inhibitor, partial curve, poor fit] |  |
| OCCCNc1nc(-c2ccccc2)c2cc(Br)ccc2n1 | active: 1.65 µM |  |
| O=C1c2ccccc2-c2n[nH]c3cccc1c23 | inconclusive: 5.36 µM [inhibitor, partial curve] |  |
| COc1cccc(CC(=O)Nc2ccccc2C(=O)N2CCOCC2)c1 | inconclusive: 4.65 µM [inhibitor, partial curve, poor fit] |  |
| Nc1c(N(Cc2ccccc2)C(=O)COc2cccc(Cl)c2)c(=O)[nH]c(=O)n1Cc1ccccc1 | inconclusive: 0.828 µM [inhibitor, full curve, poor fit] |  |
| COc1cc(S(=O)(=O)N2CCC(c3nc4ccccc4s3)CC2)ccc1S(=O)(=O)N1CC(C)CC(C)C1 (stereo not drawn) |  | inactive: 21.1% |
| CCOCC(=O)Nc1c(C(=O)N2CCN(c3ncccn3)CC2)oc2ccccc12 |  | inactive: 16.7% |
| COC(=O)c1c(SCC(=O)Nc2ccc(C)c(C)c2)nc(=O)[nH]c1C |  | inactive: 18% |
| COC(=O)c1cc(=O)cc(C(=O)OC)o1 | inconclusive: 20.8 µM [inhibitor, partial curve, poor fit] |  |
| O=C(COc1ccccc1Cl)Nc1ccc(S(=O)(=O)N2CCOCC2)cc1 |  | inactive: -1.27% |
| Cc1cccc2sc(NC(=O)C3CCCO3)nc12 (stereo not drawn) | inconclusive: 7.38 µM [inhibitor, partial curve] |  |
| Cc1ccccc1NC(=O)Nc1cnccn1 |  | inactive: 2.46% |
| COC(=O)c1ccc(/C=C/C(=O)OCC(=O)Nc2ncc(Cl)cc2Cl)cc1 | inconclusive: 11.7 µM [inhibitor, single point] |  |
| CN(Cc1ccon1)C(=O)CCc1nnc(CCCCc2ccccc2)o1 | inconclusive: 18.5 µM [inhibitor, single point] |  |

Two compounds drawn at random from those above:

| SMILES | Potency | activity change, negative = inhibition |
| --- | --- | --- |
| O=C(NNC(=O)c1ccccc1Br)c1ccncc1 | active: 10.4 µM |  |
| COC(=O)c1cc(=O)cc(C(=O)OC)o1 | inconclusive: 20.8 µM [inhibitor, partial curve, poor fit] |  |

(listing goes on)

| SMILES | Potency | activity change, negative = inhibition |
| --- | --- | --- |
| CN(C)/N=C/c1ccc(N2CCOCC2)cc1 | inconclusive: 3.7 µM [inhibitor, partial curve, poor fit] |  |
| Cc1ccc(OCCNC(=O)CCNS(=O)(=O)c2ccc3ccccc3c2)cc1 |  | inactive: -4.32% |
| COc1cccc(NC(=O)C2C3C=CC4(O3)C2C(=O)N(CCCN2CCC(C)CC2)C4C(=O)NC2CCCCC2)c1 (stereo not drawn) | inconclusive: 2.08 µM [inhibitor, full curve, poor fit] |  |
| O=C(CSc1nnc(-c2ccco2)n1-c1ccccc1)NCC1CCCO1 (stereo not drawn) |  | inactive: 3.93% |
| CCc1ccccc1NC1=NCC(=O)N1C1CCCCC1 | inconclusive: 3.29 µM [inhibitor, full curve] |  |
| CC1CC(C)CN(CCCNC(=O)Cn2ncc3c(=O)oc4ccccc4c32)C1 (stereo not drawn) | inconclusive: 18.5 µM [inhibitor, single point] |  |
| CC#CC(=O)N1CCC(CCc2ccccc2)(C(=O)OCC)CC1 | inconclusive: 9.28 µM [inhibitor, single point] |  |
| CCCc1nc2oc3c(NCCN(C)C)ncnc3c2c2c1CCCC2 | inconclusive: 10.4 µM [inhibitor, single point] |  |
| COc1cc(OC)c(OC)cc1CN1CCCC(C(=O)c2sccc2C)C1 (stereo not drawn) | inconclusive: 4.65 µM [inhibitor, partial curve] |  |
| Cc1c(Cl)cccc1NC(=O)Nc1ccn(C)n1 | inconclusive: 10.4 µM [inhibitor, partial curve, poor fit] |  |
| Cc1ccccc1C(=O)c1cn[nH]c1-c1ccccc1O | inconclusive: 10.4 µM [inhibitor, single point] |  |
| O=C(CN1CCC(NC(=O)C2CCCCC2)CC1)NCc1ccco1 | inconclusive: 18.5 µM [inhibitor, single point] |  |
| CCOC(=O)c1ccc(NC(=O)c2nc[nH]c2C(=O)N2CCC(C)CC2)cc1 | inconclusive: 8.28 µM [inhibitor, single point] |  |
| NC(=S)N=Nc1c(O)[nH]c2cc(F)c(F)cc12 | active: 9.28 µM |  |
| CN(C)c1cccc(C(=O)NNC(=O)NC2CCCCC2)c1 | active: 6.57 µM |  |
| CC(CC(=O)NCc1ccco1)S(=O)(=O)c1ccc2c(c1)CCN2C(=O)C1CC1 (stereo not drawn) | active: 8.28 µM |  |
| CC(C)(C)c1ccc(C(=O)NCc2nnc(SCC(=O)NC3CCCC3)o2)cc1 | inconclusive: 9.28 µM [inhibitor, single point] |  |
| Cc1c(O)ccc2c(CN3CCN(C/C=C/c4ccccc4)CC3)cc(=O)oc12 | inconclusive: 2.62 µM [inhibitor, full curve, poor fit] |  |
| COCCN1C=C(C(=O)OC)C(c2ccc(Cl)cc2)C(C(=O)OC)=C1 |  | inactive: 0% |
| COCCNc1cc(-c2ccccc2)nc2cc(-c3cccc(F)c3)nn12 | inconclusive: 18.5 µM [inhibitor, single point] |  |
| CN(C(=O)/C(N=Nc1cccc(C(F)(F)F)c1)=C(\O)C(F)(F)F)c1ccccc1 | inconclusive: 11.7 µM [inhibitor, single point] |  |
